Measurements: publication PMC7790953 (ACS chemical neuroscience, 2020)

Key:
h9B1 = type: binding; settings: read-out: Ki (h9B1); pH 7.4
9B1 = type: binding, mouse; settings: read-out: Ki (9B1); pH 7.4

Molecule CCOC(=O)C1(c2ccccc2)CCN(C)CC1 [meperidine] has a Ki (h9B1) of 15.7 µM and a Ki (9B1) of 8.89 µM.
